Test results taken from PubChem BioAssay AID2685 (National Center for Advancing Translational Sciences (NCATS), 2010).
Some of the results follow. Shown are side measurements of this screen, not its main read-out; they come without a call. Compounds called inactive in the main read-out are mostly missing here. Words in brackets tell the shape of the fitted curve; partial curves, single points and poor fits give uncertain potencies.

Assay: qHTS Assay for Lipid Storage Modulators in Drosophila S3 Cells;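 on cell number change: cells counted by Cell Tracker Red CMTPX staining in the red channel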
Details: BODIPY lipid droplet fluorescence, 18-24 h; for cell number change: measured here: cell count max response, cells fed with added oleic acid
How it was run: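 Drosophila S3 cells loaded with oleic acid (400 uM, as added) and compounds at several concentrations; lipid droplets imaged by 488-nm laser-scanning cytometry, 500–530 nm intensity and object ratio to cell channel. Percent activity normalized to 20 uM Triacsin C.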

[1] = measured here: lipid fluorescence (Fed channel) AC50, cells fed with added oleic acid
[2] = measured here: cell number channel AC50, cells fed with added oleic acid

Compound | cell number change [%] | AC50 [1] | AC50 [2]
Cc1nc(C(F)(F)F)nc(Nc2ccc(N=Nc3ccccc3)cc2)c1C#N | 30 | 20.6 µM [rising, single point] | –
O=C(Nc1nc(-c2nc3ccccc3s2)cs1)C1CC1 | 55.5 | 3.66 µM [rising, full curve] | 25.9 µM [rising, single point]
COc1cc2c(cc1OC)C(c1ccc(Br)cc1)N(C(=O)c1ccccc1C(=O)O)CC2 (stereo not given) | 2.38 | – | –
COc1cccc(NC(=O)C2CCCN2C(=O)Nc2ccccc2F)c1 (stereo not given) | -1.89 | – | –
O=C(CNC1CCCCC1)Nc1ccc(S(=O)(=O)N2CCCCC2)cc1 | -2.14 | – | –
O=[N+]([O-])c1ccc(Cl)cc1CN1CCCCCC1 | 16.8 | 29.1 µM [rising, single point] | 0.206 µM [rising, full curve, poor fit]
CCN(c1ccc(NC(=O)COC(=O)/C=C/c2cccs2)cc1)C(C)C | -10.4 | 16.4 µM [falling, single point] | –
COC(=O)c1ccc(C(=O)OC)c(NC(=O)CN(c2ccccc2)S(=O)(=O)N(C)C)c1 | 2.77 | 0.116 µM [rising, full curve] | –
O=C(c1ccc(CS(=O)(=O)c2ccccc2)o1)N1CCN(c2ncccn2)CC1 | 3.25 | 0.13 µM [falling, full curve, poor fit] | –
COc1ccc(C(=O)Nc2ccccc2C(=O)NCc2cccnc2)cc1 | -32.2 | 29.1 µM [rising, single point] | –
CC1=NOC2(C1)N(C)c1ccccc1C2(C)C (stereo not given) | -0.768 | 1.03 µM [falling, full curve, poor fit] | –
CCOc1ccccc1CNC(=O)C1CCCN(c2nnc(C)c3c(C)n(-c4ccccc4)nc23)C1 (stereo not given) | 20.6 | 0.13 µM [rising, full curve, poor fit] | –
COCCCN(C(=O)CSCC(=O)Nc1cccc(C)c1)c1c(N)n(Cc2ccccc2)c(=O)[nH]c1=O | 4.07 | – | –
CCNC(=O)c1sc2cc(C)ccc2c1Cl | 6.85 | 2.59 µM [falling, single point] | –
COc1ccc(OC)c(S(=O)(=O)n2cnc3ccccc32)c1 | 3.16 | 0.731 µM [rising, full curve] | –
Cc1ccc(-c2nc3ccccc3c(=O)n2Cc2ccccc2)cc1 | -6.41 | 14.6 µM [falling, single point] | –
Cc1ccc(C(=O)Nc2cc([N+](=O)[O-])ccc2F)s1 | 6.78 | 0.103 µM [rising, full curve, poor fit] | –
Cn1cccc1CC(=O)N/N=C\c1c2ccccc2cc2ccccc12 | -36.9 | 0.146 µM [falling, full curve, poor fit] | 29.1 µM [falling, single point]
C(=N\c1nc2ccccc2n1CCN1CCCCC1)/c1cccs1 | -35.9 | – | 20.6 µM [falling, single point]
Cc1ccc2[nH]cc(S(=O)(=O)c3ccc(F)cc3)c(=O)c2c1 | 0.901 | 29.1 µM [rising, single point] | –

Look-ups from above:
O=C(c1ccc(CS(=O)(=O)c2ccccc2)o1)N1CCN(c2ncccn2)CC1 | AC50 [1]: 0.13 µM [falling, full curve, poor fit]
CCN(c1ccc(NC(=O)COC(=O)/C=C/c2cccs2)cc1)C(C)C | cell number change [%]: -10.4

Additional compounds follow.

Compound | cell number change [%] | AC50 [1] | AC50 [2]
CN(C)c1ccc(S(=O)(=O)NCC(=O)NCCOc2ccccc2F)cc1[N+](=O)[O-] | 111 | – | 18.4 µM [rising, single point]
O=C(CCCOc1ccc(Cl)cc1Cl)NN1CCOCC1 | 5.55 | 7.31 µM [falling, single point] | –
O=C(C1=C(O)C(=O)N(CCN2CCOCC2)C1c1cccc([N+](=O)[O-])c1)c1cccs1 (stereo not given) | 2.72 | 25.9 µM [falling, single point] | –
CCOCCCn1c(SCC(=O)NC(C)C)nc2ccccc2c1=O | -3.79 | – | 0.92 µM [rising, full curve]
O=[N+]([O-])c1cccc(S(=O)(=O)NCCc2cccs2)c1 | -4.76 | – | –
CCCc1cc(C(=O)NCc2ccccc2)no1 | 34.8 | – | 1.84 µM [rising, full curve, poor fit]
CN1CCN(C(=O)c2ccc3c(c2)N(Cc2cccc(Cl)c2)C(=O)c2ccccc2S3(=O)=O)CC1 | 37.1 | – | 29.1 µM [rising, single point]
COc1ccccc1CNC(=O)CN1C(=O)c2ccccc2S1(=O)=O | 17.8 | – | –
CCC(c1nc2ccccc2c(=O)n1CCCn1ccnc1)N1C(=O)c2ccccc2C1=O (stereo not given) | – | – | 0.259 µM [rising, full curve, poor fit]
CSCC[C@H](NC(=O)N1CCn2c1nc1ccccc12)C(=O)NCc1ccccc1 | -2.02 | 29.1 µM [falling, single point] | –
C/C(=N\Nc1ccc(S(=O)(=O)N2CCCCC2)cn1)c1ccc(O)cc1 | -1.87 | 0.231 µM [rising, full curve, poor fit] | –
O=C(COC(=O)[C@@H]1CCCN1S(=O)(=O)c1ccccc1F)Nc1ccc(OC(F)F)cc1 | 66 | 6.51 µM [falling, single point] | 29.1 µM [rising, single point]
CCOc1ccc(C2C(C#N)=C(N)Oc3cc(C)n(CCN4CCOCC4)c(=O)c32)cc1OCC (stereo not given) | 3.69 | 0.164 µM [rising, full curve, poor fit] | –
COc1ccc(/C=N/NC(=O)c2ccc(Cl)cc2)cc1COC(C)=O | 8.42 | 0.82 µM [rising, full curve, poor fit] | –
S=C(NCc1ccccn1)Nc1ccc(Br)cc1Cl | 6.88 | – | –
CCCCn1c(SCC(=O)NCc2ccco2)nc2ccc(N3CCOCC3)cc2c1=O | – | 0.58 µM [rising, single point] | –
Cc1cc(C)c(C#N)c(SCc2ccccc2C)n1 | 20.3 | 5.17 µM [rising, full curve] | 1.84 µM [rising, partial curve, poor fit]
CCCn1c(COc2ccccc2OC)nc2ccccc21 | -30.3 | – | 5.8 µM [falling, partial curve]
O=C(OCC(=O)c1ccccc1Br)c1ccccn1 | -18.9 | 0.146 µM [falling, full curve, poor fit] | 0.0651 µM [falling, full curve, poor fit]
